Assay results as given in patent US20030166056A1, “Transmembrane protein as a downstream target of neurotrophin and ephrin receptor tyrosine kinases, DNA encoding same and monoclonal antibodies thereto” (New York University, priority 2000, published 2003).
No constants are given. Whether binding was seen depends on the method and setting. In cells and extracts the contact can be indirect. Some entries that bind do so weakly or less than the wild type.

Chains of the proteins cited; added tags and fusions are not shown. Lines headed by an entry give the natural chain unless they say otherwise; changes in a name come on top. Residues count along the entry.
UniProt P35739, residues 33-799: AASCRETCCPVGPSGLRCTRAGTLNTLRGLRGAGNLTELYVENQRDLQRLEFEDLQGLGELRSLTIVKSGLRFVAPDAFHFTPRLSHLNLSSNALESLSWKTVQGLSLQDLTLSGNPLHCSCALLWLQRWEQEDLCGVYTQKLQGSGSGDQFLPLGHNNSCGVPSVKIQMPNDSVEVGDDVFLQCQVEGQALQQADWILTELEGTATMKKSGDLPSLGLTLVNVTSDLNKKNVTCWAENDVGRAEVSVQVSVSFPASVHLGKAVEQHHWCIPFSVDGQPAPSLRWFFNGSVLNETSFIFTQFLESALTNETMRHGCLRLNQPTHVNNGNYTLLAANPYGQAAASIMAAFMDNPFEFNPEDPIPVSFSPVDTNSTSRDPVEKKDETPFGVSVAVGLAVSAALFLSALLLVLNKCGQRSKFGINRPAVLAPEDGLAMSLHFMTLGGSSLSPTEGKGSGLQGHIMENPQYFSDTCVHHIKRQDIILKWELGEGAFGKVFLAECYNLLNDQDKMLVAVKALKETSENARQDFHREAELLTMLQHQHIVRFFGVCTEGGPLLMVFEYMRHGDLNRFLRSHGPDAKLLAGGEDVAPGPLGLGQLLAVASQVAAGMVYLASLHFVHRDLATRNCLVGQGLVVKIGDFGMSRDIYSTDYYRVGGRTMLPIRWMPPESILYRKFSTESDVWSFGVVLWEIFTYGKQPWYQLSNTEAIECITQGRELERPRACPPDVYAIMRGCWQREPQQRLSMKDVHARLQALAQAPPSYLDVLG
UniProt P07174, residues 30-425: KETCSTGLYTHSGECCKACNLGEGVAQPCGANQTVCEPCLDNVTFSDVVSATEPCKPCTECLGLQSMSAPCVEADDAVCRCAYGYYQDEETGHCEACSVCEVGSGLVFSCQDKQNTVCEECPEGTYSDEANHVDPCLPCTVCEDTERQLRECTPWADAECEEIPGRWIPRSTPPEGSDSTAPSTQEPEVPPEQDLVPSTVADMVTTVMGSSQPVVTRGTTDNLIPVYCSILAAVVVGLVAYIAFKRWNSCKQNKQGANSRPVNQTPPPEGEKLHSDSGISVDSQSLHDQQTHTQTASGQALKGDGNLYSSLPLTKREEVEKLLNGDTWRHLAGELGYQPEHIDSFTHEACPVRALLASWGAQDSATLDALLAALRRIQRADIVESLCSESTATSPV
UniProt Q9EQG6: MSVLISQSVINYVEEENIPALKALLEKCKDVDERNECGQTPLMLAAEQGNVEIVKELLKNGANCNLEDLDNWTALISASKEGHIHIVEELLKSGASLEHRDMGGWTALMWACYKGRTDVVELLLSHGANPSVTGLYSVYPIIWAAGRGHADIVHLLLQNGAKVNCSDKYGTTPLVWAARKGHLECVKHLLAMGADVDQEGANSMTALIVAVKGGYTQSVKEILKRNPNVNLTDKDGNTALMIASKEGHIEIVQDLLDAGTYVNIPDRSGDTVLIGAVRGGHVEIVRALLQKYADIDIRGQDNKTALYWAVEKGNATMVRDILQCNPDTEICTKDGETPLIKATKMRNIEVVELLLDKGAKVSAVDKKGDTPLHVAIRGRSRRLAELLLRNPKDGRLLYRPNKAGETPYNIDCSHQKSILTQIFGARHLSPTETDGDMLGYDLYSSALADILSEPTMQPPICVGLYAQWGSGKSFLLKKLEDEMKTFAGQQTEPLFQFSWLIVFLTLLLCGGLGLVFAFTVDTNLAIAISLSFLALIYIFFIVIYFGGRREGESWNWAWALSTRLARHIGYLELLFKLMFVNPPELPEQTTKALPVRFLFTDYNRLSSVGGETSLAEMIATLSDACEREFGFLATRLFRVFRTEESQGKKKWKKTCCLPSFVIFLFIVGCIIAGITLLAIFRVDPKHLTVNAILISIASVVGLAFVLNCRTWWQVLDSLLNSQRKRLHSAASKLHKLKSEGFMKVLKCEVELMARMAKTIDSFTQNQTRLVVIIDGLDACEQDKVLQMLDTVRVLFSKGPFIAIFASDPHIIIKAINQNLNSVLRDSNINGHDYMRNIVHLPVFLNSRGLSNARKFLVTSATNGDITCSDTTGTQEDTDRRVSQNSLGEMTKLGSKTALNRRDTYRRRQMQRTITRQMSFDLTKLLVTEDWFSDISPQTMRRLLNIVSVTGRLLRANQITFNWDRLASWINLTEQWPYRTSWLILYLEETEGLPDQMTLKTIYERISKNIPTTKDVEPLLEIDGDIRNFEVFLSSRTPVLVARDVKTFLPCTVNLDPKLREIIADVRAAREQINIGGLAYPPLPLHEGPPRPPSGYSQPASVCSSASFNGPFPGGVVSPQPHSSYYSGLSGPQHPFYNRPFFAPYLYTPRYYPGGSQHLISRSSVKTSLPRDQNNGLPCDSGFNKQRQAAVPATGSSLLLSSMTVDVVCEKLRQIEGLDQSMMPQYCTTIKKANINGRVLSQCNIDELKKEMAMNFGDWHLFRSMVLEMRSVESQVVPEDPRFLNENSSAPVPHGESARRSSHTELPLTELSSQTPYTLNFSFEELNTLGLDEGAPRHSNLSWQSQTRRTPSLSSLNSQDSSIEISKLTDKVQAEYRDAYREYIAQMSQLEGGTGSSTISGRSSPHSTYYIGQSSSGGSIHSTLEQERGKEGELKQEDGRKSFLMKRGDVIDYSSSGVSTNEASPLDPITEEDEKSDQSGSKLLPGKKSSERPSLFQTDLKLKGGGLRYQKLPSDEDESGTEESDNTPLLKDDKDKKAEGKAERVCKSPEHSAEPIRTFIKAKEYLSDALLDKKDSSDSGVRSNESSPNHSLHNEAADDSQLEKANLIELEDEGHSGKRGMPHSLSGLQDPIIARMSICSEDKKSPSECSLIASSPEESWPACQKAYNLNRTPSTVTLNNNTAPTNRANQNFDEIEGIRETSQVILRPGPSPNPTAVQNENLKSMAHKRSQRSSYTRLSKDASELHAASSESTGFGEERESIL

Key:
[1] = target: TrkA receptor, full length cDNA transfected into HEK293 cells (rat) (UniProt P35739); experiment: co-immunoprecipitation (Example 1 and FIGS. 15A and 15B)
[2] = target: TrkA receptor, full length cDNA transfected into HEK293 cells (rat) (UniProt P35739); experiment: co-immunoprecipitation from transfected HEK293 cells (Flag agarose-conjugated antibody), Western blot
[3] = target: rat HA-tagged p75 neurotrophin receptor (rat) (UniProt P07174); experiment: co-immunoprecipitation from co-transfected HEK293T cells (IP with anti-ARMS 892, immunoblot with anti-HA)

Measured: binding

ARMS (Ankyrin Repeat-rich, Membrane Spanning) protein, rat, full length (from UniProt Q9EQG6 1-1762)
binds: all assays above
